From PubChem BioAssay AID1347076 (National Center for Advancing Translational Sciences (NCATS), 2019)
The whole screen tested about 400,000 compounds, of which about 13,000 (3.2%) were called active. The shares of active, inactive and inconclusive entries below differ from those in the screen. Calls come from the whole dose curve; as a rule, active = well fitted cell-killing curve with a large enough effect; inconclusive = small, poorly fitted or top-dose-only effect, or effect the other way; inactive = flat fitted curve, though single readings scatter. Potencies beside an inconclusive call are fits to weak or partial responses and may not hold up.

Experiment: qHTS assay for MDR1-selective chemotherapeutics: Primary screen using the drug-selected MDR subline cells KB-V1; note: nearly all actives have a fitted effect of over 60% in size
Conditions: KB-V1 MDR cells viability, CellTiter-Glo, 72 h; activity change, negative = cytotoxicity: at 46.1 µM (top of the series)
Method in brief: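 KB-V1 MDR subline cells in DMEM (phenol-red free, 10% FBS) exposed to compounds in qHTS concentration series for 72 h at 37 degrees C. Viability read by CellTiter-Glo luminescence; concentration-effect curves fitted after normalization and correction.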
% is set by controls: 0 for no effect and ±100 for the full control effect; potency is the fitted concentration of half-maximal effect.

SMILES	Potency	activity change, negative = cytotoxicity
CC1CC2C3CCC4=CC(=O)CCC4(C)C3CCC2(C)C1(O)C(=O)CO (stereo not given)	inactive	–
O=C(COc1ccc([N+](=O)[O-])cc1)Nc1cccc(C(=O)Nc2ccccc2C(=O)O)c1	inconclusive: 29.1 µM [rising, single point]	–
CC(C(=O)Nc1ccc(O)cc1)c1cccc(C(=O)c2ccccc2)c1 (stereo not given)	inconclusive: 16.4 µM [cytotoxic, partial curve]	–
COc1cc(NC(=O)CN2CCN(c3ccc(F)cc3)CC2)cc(OC)c1	inactive	–
CCOC(=O)[C@]12CCCC=C1N(Cc1ccc3c(c1)OCO3)C(=O)[C@H](CC(=O)N1CCOCC1)C2	inconclusive: 4.61 µM [cytotoxic, partial curve]	–
Cc1ccn2c(CNCC3OCCc4ccccc43)c(C(=O)N3CCCCCC3)nc2c1 (stereo not given)	inactive	–
O=C(Nc1nc2ccc(F)cc2s1)c1ccc([N+](=O)[O-])o1	inconclusive: 29.1 µM [cytotoxic, single point]	–
CCCNC(=O)COC(=O)c1c2c(nc3ccccc13)CCC2	inconclusive: 20.6 µM [cytotoxic, single point]	–
CC1=C(C(=O)OCC2CCCO2)C(c2cccc(C(F)(F)F)c2)C2=C(CC(c3ccco3)CC2=O)N1 (stereo not given)	inconclusive: 8.91 µM [cytotoxic, partial curve]	–
Cc1noc(N)c1C1(O)C(=O)N(C(C)C)c2ccccc21 (stereo not given)	inactive	–
O=C(c1ccc2ncsc2c1)N1CCN(c2nc3ccccc3s2)CC1	active: 7.31 µM	–
Cc1ccc2oc(-c3ccc(NC(=O)CCC(=O)O)cc3)nc2c1	inconclusive: 2.59 µM [rising, full curve, poor fit]	–
O=S(=O)(c1ccccc1)N1CCN(c2ccnc3cc(Cl)ccc23)CC1	inconclusive: 4.61 µM [cytotoxic, full curve]	–
Cn1c(-c2ccc(F)cc2)cnc1SCC(=O)Nc1ccccc1	inconclusive: 20.6 µM [cytotoxic, single point]	–
CCn1cc2nc(SCC(=O)Nc3cc(OC)cc(OC)c3)n(Cc3ccc(Cl)cc3)c(=O)c2n1	inactive	–
COC(=O)c1c(NC(=O)C2CC=CCC2C(=O)O)sc2c1CCCCC2 (stereo not given)	inactive	–
Cc1cc(C)c2c(c1)NC(C(=O)O)C1CC=CC21 (stereo not given)	inconclusive: 29.1 µM [cytotoxic, single point]	–
CN(C)c1ccnc(N(Cc2ccccc2)Cc2ccccc2)c1C#N	inconclusive: 16.4 µM [cytotoxic, partial curve]	–
COc1cc2c(cc1OC)C(c1cccc(Br)c1)CC(=O)N2 (stereo not given)	inactive	–
CC1=CC2=NC(=O)/C(=C\c3ccc(-c4cccc(Cl)c4)o3)C(=N)N2O1	inconclusive: 5.17 µM [cytotoxic, full curve]	–
COc1ccc(C(=O)NCc2cc(C(C)C)no2)cc1OC1CCN(C(C)C)CC1	inconclusive: 29.1 µM [rising, single point]	–
CCN1CCN(C(=S)Nc2cccc(C(F)(F)F)c2)CC1	inconclusive: 0.103 µM [rising, full curve]	–
Cc1ccc(S(=O)(=O)c2ccc([N+](=O)[O-])cn2)cc1	active: 9.2 µM	–

Some values from the list.
In Potency, CC1CC2C3CCC4=CC(=O)CCC4(C)C3CCC2(C)C1(O)C(=O)CO (stereo not given) has inactive
In Potency, O=C(c1ccc2ncsc2c1)N1CCN(c2nc3ccccc3s2)CC1 has active: 7.31 µM
In Potency, COc1ccc(C(=O)NCc2cc(C(C)C)no2)cc1OC1CCN(C(C)C)CC1 has inconclusive: 29.1 µM [rising, single point]

(next part)

SMILES	Potency	activity change, negative = cytotoxicity
CN(CC1CCCO1)S(=O)(=O)c1ccc(C(=O)Nc2ccccc2F)cc1 (stereo not given)	inconclusive: 23.1 µM [cytotoxic, partial curve, poor fit]	–
CC(=O)Nc1ccc(/C=C(\C#N)C(=O)NC2CCCCC2C)cc1 (stereo not given)	inconclusive: 29.1 µM [rising, single point]	–
COC(=O)N1CCCc2cc(S(=O)(=O)NCc3ccccc3)ccc21	inconclusive: 18.4 µM [cytotoxic, single point]	–
CC(C)c1onc(C(=O)N2CCN(Cc3ccccc3)CC2)c1[N+](=O)[O-]	inactive	–
Cc1ccc(S(=O)(=O)Nc2ccccc2C(=O)N2CCCCC2C)c(C)c1NS(C)(=O)=O (stereo not given)	inconclusive: 29.1 µM [rising, single point]	–
CCOc1ccc(NC(=O)c2sc3nc4n(c(=O)c3c2C)CCC4)cc1	inactive	–
COC(=O)c1ccc(NC(=O)c2ccc(F)cc2)o1	inconclusive: 23.1 µM [rising, single point]	–
N#Cc1nc(-c2ccco2)oc1NCc1ccccc1Cl	inconclusive: 1.84 µM [cytotoxic, partial curve, poor fit]	–
O=C(COC(=O)c1cccc(O)c1)Nc1ccc(N2CCOCC2)cc1	inactive	–
CC(C)C(C(=O)NC1CCCC1)N1CCN(c2ncccc2C#N)CC1 (stereo not given)	inconclusive: 4.11 µM [cytotoxic, full curve]	–
OC(COCc1cccs1)CN1CCN(c2cccc(C(F)(F)F)c2)CC1 (stereo not given)	active: 23.1 µM	–
CC(=O)Nc1ccc(S(=O)(=O)Nc2c(C)nn(-c3ccccc3)c2C)cc1	inactive	–
Cc1ccc(C(=O)N2C(=S)C(c3ccc(F)cc3)=NC23CCN(C)CC3)cc1	inconclusive: 29.1 µM [cytotoxic, single point]	–
Cc1ccccc1NCCC(=O)Nc1ccc(F)cc1	inconclusive: 16.4 µM [cytotoxic, partial curve, poor fit]	–
COc1cc(-c2noc(-c3ccc(NCC4CCCO4)c([N+](=O)[O-])c3)n2)cc(OC)c1OC (stereo not given)	inactive	–
COc1ccc(-c2csc(NC(=O)CS(=O)(=O)c3ccccc3)n2)cc1OC	inconclusive: 23.1 µM [cytotoxic, single point]	–
CN(CC(=O)NCC1CCCO1)S(=O)(=O)c1cc(Cl)ccc1Cl (stereo not given)	inconclusive: 18.4 µM [cytotoxic, partial curve, poor fit]	–
COc1ccc(CN2C(=O)CNC2=S)cc1	inconclusive: 32.6 µM [rising, partial curve, poor fit]	–
CCNC(=S)NNC(=O)c1csc(CC)c1	inactive	–
Cc1ccc(CN(C)C(=O)c2cccc(S(=O)(=O)N3CCCC3)c2)o1	–	inconclusive: 19%
CC(=O)Cc1ccccc1OC(=O)c1ccco1	inconclusive: 11.6 µM [rising, partial curve]	–
CN(CC1CCCN(CCc2ccc(Cl)cc2)C1)C(=O)c1ccco1 (stereo not given)	inconclusive: 10.3 µM [cytotoxic, partial curve]	–
